Results as given in publication PMC7335806.
These are yes or no findings as the source states them, for the method shown. For some assays here: Binding seen in cells or lysates may run through a third protein. Some binding calls cover weakened binding; strength is not graded here. For some assays here: Sequences can lack the tags named with a protein.

The chains behind the UniProt entries cited, without tags or fusion partners. Where a name states a change or a piece, a line headed by the entry shows the natural chain unless it says otherwise. A line that says so, or that is headed by a name, gives the form on record, which may keep a tag or linker. Residues count along the entry.
His-tagged human Sar1A (H79G) (Q9NR31, form named): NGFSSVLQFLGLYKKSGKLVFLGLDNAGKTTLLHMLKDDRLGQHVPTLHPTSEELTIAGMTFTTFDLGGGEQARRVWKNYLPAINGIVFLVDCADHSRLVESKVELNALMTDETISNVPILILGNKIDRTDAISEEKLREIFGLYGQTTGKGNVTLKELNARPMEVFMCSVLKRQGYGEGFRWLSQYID
UniProt O35161, residues 30-3034: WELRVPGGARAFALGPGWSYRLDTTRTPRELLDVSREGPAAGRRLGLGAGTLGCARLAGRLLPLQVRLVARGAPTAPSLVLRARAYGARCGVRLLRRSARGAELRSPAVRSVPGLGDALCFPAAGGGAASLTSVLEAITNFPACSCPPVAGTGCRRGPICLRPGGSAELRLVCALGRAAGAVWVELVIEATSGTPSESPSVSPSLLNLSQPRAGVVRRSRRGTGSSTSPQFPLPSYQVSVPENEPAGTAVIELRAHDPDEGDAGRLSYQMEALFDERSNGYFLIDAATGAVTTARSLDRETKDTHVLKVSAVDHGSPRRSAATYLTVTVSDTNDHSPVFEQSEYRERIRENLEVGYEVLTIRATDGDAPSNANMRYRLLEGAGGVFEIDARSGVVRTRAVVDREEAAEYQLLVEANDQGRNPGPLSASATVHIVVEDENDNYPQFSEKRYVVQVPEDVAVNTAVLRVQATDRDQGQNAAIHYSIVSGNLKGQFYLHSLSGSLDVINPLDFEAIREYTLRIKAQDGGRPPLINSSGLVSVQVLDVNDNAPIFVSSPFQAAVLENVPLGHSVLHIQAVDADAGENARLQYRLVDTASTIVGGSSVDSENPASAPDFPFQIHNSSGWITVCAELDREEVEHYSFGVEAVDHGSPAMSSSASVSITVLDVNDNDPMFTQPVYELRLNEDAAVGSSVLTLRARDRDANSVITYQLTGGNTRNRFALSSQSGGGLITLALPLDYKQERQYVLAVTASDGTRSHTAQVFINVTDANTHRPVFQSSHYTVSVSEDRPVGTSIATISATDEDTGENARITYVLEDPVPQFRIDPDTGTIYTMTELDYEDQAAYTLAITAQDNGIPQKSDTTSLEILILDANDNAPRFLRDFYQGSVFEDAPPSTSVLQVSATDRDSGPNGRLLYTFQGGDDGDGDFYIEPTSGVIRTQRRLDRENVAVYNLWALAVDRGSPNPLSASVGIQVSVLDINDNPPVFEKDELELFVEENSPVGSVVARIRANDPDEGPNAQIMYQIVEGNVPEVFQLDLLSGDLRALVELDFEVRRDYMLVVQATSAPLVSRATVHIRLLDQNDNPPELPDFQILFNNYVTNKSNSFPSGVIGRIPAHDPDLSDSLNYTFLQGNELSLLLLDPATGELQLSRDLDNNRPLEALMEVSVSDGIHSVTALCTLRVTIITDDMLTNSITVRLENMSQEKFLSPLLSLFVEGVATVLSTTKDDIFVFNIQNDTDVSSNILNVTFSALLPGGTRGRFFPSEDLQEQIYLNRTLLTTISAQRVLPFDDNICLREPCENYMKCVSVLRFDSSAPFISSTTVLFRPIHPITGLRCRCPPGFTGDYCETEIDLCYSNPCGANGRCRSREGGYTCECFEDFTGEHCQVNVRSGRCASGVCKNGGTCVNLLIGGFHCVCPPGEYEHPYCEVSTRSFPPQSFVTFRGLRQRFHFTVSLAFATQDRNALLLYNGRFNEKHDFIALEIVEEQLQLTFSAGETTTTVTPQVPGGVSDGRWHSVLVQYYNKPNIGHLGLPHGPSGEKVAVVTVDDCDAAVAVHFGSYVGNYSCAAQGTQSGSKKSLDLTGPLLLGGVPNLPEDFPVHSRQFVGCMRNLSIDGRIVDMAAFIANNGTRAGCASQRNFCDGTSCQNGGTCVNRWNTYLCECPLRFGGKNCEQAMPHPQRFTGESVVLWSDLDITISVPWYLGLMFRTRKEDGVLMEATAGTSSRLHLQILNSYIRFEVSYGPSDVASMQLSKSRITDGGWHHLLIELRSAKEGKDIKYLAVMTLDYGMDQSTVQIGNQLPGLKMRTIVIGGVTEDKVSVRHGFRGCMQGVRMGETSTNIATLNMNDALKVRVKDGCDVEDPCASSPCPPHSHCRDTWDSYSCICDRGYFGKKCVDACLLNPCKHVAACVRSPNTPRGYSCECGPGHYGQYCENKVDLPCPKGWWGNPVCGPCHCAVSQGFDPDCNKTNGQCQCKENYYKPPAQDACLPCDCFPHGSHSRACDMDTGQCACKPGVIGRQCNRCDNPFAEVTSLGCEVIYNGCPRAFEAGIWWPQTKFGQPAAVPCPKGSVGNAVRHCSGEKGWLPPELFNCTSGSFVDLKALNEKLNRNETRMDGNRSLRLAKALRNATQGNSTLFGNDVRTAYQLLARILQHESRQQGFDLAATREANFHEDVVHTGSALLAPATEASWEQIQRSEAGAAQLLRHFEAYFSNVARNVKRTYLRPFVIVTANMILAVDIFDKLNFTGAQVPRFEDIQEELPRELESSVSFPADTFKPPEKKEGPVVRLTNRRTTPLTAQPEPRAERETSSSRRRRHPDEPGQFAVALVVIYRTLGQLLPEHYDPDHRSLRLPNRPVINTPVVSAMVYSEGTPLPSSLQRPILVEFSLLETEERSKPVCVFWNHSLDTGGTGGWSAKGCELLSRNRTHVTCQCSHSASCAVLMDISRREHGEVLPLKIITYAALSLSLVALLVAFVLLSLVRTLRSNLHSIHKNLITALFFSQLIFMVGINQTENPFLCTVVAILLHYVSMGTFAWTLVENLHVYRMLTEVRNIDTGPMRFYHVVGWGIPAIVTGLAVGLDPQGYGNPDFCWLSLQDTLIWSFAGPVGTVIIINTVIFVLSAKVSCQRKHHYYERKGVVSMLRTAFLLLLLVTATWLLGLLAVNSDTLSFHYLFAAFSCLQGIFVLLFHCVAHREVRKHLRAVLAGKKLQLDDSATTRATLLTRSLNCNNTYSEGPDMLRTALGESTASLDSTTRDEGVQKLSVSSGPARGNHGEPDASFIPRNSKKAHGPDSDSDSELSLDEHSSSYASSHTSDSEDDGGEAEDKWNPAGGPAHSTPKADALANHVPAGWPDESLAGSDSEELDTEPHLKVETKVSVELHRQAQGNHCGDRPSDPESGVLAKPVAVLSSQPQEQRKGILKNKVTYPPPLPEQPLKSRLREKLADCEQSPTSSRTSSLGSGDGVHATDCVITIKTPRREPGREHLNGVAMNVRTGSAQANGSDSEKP

Columns and labels:
[1] = biological target: T1, RRFR peptides (first intracellular loop of Fzd6) (mouse); experiment: pull-down; peptides (5 nmol) covalently coupled to thiopyridone-Sepharose 6B beads via the C-terminal cysteine; 2 μg purified His-tagged Sar1A preincubated with 500 μM GTPγS in HK buffer (100 mM KCl, 20 mM Hepes pH 7.2); 1 h at 4 °C; immunoblotting; both purified
T1 sequence (peptide): VRRFRYPERPC

[2] = biological target: T2, HA-tagged Fzd6 construct containing a FLAG tag in the C-terminal cytosolic domain (mouse) (UniProt Q61089); experiment: co-IP; lysates of HEK293T cells cotransfected with HA-Fzd6-FLAG and Celsr1-Myc on anti-FLAG M2-agarose in HKT buffer, 4 °C overnight; eluted with FLAG peptides; immunoblotting
T2 sequence: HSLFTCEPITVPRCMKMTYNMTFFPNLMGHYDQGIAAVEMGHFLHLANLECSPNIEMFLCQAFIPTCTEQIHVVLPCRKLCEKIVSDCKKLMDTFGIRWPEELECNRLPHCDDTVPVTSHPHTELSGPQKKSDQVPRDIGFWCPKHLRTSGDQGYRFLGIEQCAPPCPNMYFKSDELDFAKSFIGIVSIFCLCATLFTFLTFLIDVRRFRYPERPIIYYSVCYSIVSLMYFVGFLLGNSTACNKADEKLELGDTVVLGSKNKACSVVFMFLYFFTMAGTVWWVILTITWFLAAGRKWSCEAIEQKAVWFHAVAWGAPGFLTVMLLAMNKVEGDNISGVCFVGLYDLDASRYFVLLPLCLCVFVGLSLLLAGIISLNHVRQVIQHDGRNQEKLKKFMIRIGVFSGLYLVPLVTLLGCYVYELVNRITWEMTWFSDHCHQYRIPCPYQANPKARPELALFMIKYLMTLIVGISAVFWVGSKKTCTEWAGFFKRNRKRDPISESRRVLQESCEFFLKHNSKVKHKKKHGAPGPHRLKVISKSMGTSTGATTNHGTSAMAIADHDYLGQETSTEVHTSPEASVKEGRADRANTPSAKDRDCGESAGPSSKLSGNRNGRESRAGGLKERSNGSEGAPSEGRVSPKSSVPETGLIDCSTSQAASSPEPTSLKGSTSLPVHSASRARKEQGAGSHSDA

binding [1]	binding [2]	Substance
binds	–	His-tagged human Sar1A (H79G) (from UniProt Q9NR31 10-198) (enzyme)
–	binds	Myc-tagged mouse Celsr1 (from UniProt O35161 30-3034) (receptor)
